The experiment addresses CDC42 M45E/N52E (so in the source); residue 52 of CDC42 is given as T52 in the discussion) (human) (UniProt P60953). The experiment can be described thus: stopped-flow fluorescence spectrometry; kon from 0.2 µM mGppNHp-bound RHO GTPase with 2-8 µM IQGAP1^C794; koff by displacing with 10 µM unlabeled RAC1-GppNHp from 2 µM IQGAP1^C794 with 0.2 µM GTPase; Kd calculated from the rate constants; 25 °C; both purified.

Protein sequences, listed by entry. Tags and fused reporters are not part of them. Lines headed by an entry give the natural chain unless they say otherwise; changes in a name come on top. Residues count along the entry.
UniProt P60953: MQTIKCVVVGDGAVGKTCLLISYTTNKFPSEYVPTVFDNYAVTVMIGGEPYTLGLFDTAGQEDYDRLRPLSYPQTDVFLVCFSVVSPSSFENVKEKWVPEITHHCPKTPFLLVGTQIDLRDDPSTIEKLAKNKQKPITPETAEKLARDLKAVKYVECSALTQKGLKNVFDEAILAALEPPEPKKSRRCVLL
UniProt P46940, residues 863-1657: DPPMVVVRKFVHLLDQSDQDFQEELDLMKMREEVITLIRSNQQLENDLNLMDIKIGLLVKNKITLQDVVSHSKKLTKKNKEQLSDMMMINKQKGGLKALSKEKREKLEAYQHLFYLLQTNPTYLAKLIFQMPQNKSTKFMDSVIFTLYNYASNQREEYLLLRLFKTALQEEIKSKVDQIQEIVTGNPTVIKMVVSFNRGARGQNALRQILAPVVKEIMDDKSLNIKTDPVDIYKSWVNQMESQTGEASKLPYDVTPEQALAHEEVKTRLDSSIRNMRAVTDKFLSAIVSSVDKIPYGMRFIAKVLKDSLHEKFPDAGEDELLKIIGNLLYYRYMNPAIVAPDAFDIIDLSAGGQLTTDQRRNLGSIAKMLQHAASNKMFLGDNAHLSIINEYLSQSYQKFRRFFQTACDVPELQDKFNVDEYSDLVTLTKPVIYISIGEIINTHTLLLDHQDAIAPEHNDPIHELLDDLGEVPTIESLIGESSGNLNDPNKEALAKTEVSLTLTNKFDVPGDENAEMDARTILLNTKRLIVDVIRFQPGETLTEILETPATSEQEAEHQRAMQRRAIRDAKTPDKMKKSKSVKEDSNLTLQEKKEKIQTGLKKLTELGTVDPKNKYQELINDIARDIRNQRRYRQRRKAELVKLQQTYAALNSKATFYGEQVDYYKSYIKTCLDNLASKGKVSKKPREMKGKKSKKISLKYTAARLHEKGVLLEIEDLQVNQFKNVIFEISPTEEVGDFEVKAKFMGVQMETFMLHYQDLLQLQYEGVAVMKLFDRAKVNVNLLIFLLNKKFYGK

These are yes or no findings as the source states them, for the method shown. Binding calls can cover weak binding; strength is not graded here.

Here are results for 1 substance from publication PMC8625570.

For “IQGAP1^C794 (C-terminal half of human IQGAP1 with the GRD, RGCT and CT domains) (from UniProt P46940 863-1657) (domain or fragment)”, the binding result was “binds”.
